Test results published in the supplement of paper PMC5407854, “Inhibitor of ppGalNAc-T3-mediated O-glycosylation blocks cancer cell invasiveness and lowers FGF23 levels” (eLife, 2017).
The other results are listed elsewhere or left out. Most values lie at the level of the controls, where differences are scatter.

These molecules were tested on ppGalNAc-T3 sensor (assay: T3 sensor activation Q score (MG/GFP ratio z-score vs DMSO controls) (SD units); higher = more sensor activation (inhibition of ppGalNAc-T3 glycosylation)). Conditions: HEK293 sensor cells; 10 µM; 6 h.
Protocol: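 Cells were treated with compound at 10 uM for 6 h, then MG/GFP ratio was read by flow cytometry (10,000 cells per well, duplicate wells). Q = (R - R_neg)/SD_neg relative to DMSO vehicle controls; the signal rises when the glycosyltransferase is inhibited.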

Compound | T3 sensor activation Q score
COc1cc(OC)c(OC)cc1CN1CCN(C/C=C/c2ccccc2)CC1 | 0.065
COc1cc(O)c(C(=O)c2ccccc2)cc1[N+](=O)[O-] | -0.695
O=C(O)C1CCCCC1C(=O)Nc1ccccc1Cl (stereo not given) | -0.485
CCN(CC)c1ccc(NC(=O)c2ccco2)cc1 | 0.05
Cc1nc2cc(CC(=O)O)ccc2s1 | 0.12
Clc1ccc(OCc2nc3ccccc3[nH]2)c(Cl)c1 | -0.16
C=CCN1C(=O)C(O)=C(C(C)=O)C1c1ccc(Br)cc1 (stereo not given) | 0.09
CCN(CCN(C)C)Cc1ccc(F)cc1 | 0.6
CC1(C)CC(=O)C2=C(C1)Nc1ccccc1NC2c1ccc(Cl)cc1 (stereo not given) | -0.385
Cc1cccc(NC(=O)COc2ccc(Br)cc2)c1C | 1.33
O=C(O)CC1(c2ccccc2)C(=O)c2ccccc2C1=O | -0.765
COc1ccccc1CNC(=O)CCc1ccccc1 | 0.765
Cc1ccc(S(=O)(=O)N2CCN(CCCc3ccccc3)CC2)cc1 | -1.15
O=C(O)C1CCCCC1C(=O)N1CCCCCC1 (stereo not given) | -0.36
O=C(Nc1ccc(Cl)cc1)C(=O)NC1CC1 | 0.455
O=c1nc2cc3[nH]c4c(=O)c5ccccc5c4[nH]c3cc2n1 | -0.085
COc1cc(CN2CCN(C/C=C/c3ccccc3)CC2)cc(OC)c1OC | -0.465
O=C(c1ccc(Br)cc1)N1CCN(c2ccc([N+](=O)[O-])cc2)CC1 | -0.19
Cc1ccc(S(=O)(=O)Nc2cccc3cccnc23)cc1 | -0.985
CCOc1cc(N2CCOCC2)ccc1[N+](=O)[O-] | -0.095

Reprinted from the results shown for reference:
Compound | T3 sensor activation Q score
CC1(C)CC(=O)C2=C(C1)Nc1ccccc1NC2c1ccc(Cl)cc1 (stereo not given) | -0.385
Cc1cccc(NC(=O)COc2ccc(Br)cc2)c1C | 1.33
O=C(O)CC1(c2ccccc2)C(=O)c2ccccc2C1=O | -0.765

Continuation.

Compound | T3 sensor activation Q score
Cc1cccc(N2CCN(Cc3cccs3)CC2)c1C | 0.235
CC(=O)Nc1ccc(-c2nc3ccc(C)cc3s2)cc1 | 0.365
Cc1ccccc1OCC(=O)Nc1cc(Cl)ccc1Cl | 0.375
O=C(Nc1cccc2cccnc12)NC1CCCCC1 | 0.7
CCN(C(=O)Cc1ccc(Cl)cc1)c1ccccc1C | -0.13
CC(C)(C)NC(=O)Nc1ccc2nccnc2c1 | -0.445
O=C(NCCc1ccccc1)c1ccco1 | -1.22
CNCC(O)COc1ccc(C)cc1C (stereo not given) | 0.435
O=C(Nc1ccc(-c2ccccc2)cc1)c1ccccc1Br | -0.355
Cc1cccc(C)c1NCc1c(F)cccc1F | 1.05
Cc1cc(-c2ccccc2)nc2cc(C(N)=O)nn12 | -0.36
c1ccc2c3c([nH]c2c1)-c1nonc1CC3 | -0.38
O=C1CC(N2CCCCC2)C(=O)N1c1cccc(Cl)c1 (stereo not given) | -0.415
O=C(CCSc1ccccc1)NC1CCCCC1 | 0.52
CC(=Nc1ccccc1)Nc1ccccc1 | -0.58
CCOc1ccc2nc3cc(N)ccc3c(N)c2c1 | 0.84
COc1ccc(NC2=C(N(C)C)C(=O)c3ccccc3C2=O)cc1 | -0.26
CCOc1ccc(NC2=C([N+](=O)[O-])CS(=O)(=O)C2)cc1 | -0.295
O=C(Nc1ccc(Cl)cc1)c1ccc2nc3ccccc3nc2c1 | 0.115
O=[N+]([O-])c1ccccc1Oc1ccccc1 | 0.415
